# This continues a long series; more values of the same kind are listed elsewhere.
# Test system: strains of Enterobacteriaceae producing various carbapenemases (class A, D and B; 169 strains)
# Assay: Meropenem or tebipenem potentiation by Compounds 97 or 62 (MIC)
# Assay type: cell-based
# Description: The largest panel of clinical isolates expressing class A, D and B carbapenemases alone or in combination with other beta-lactamases (169 strains) was used to evaluate carbapenem potentiation activity of Compounds 97 and 62. MIC for meropenem and tebipenem of these strains were determined either alone or in the presence of Compounds 97 or 62, respectively, at a fixed concentration of 8 μg/ml in the growth media.
compound,measurement,setting,value
C[C@@H](O)[C@H]1C(=O)N2C(C(=O)O)=C(S[C@@H]3CN[C@H](C(=O)N(C)C)C3)[C@H](C)[C@H]12 [M],Meropenem MIC alone (M),CF1012 Citrobacter freundii KPC-2,Y (MIC of 1 μg/mL to 10 μg/mL)
same,Meropenem MIC alone (M),"CF1021 Citrobacter freundii CMY-type, VIM-1",Y (MIC of 1 μg/mL to 10 μg/mL)
same,Meropenem MIC alone (M),"EA1019 Enterobacter aerogenes SHV-5, VIM-1",Z (MIC of greater than 10 μg/mL)
same,Meropenem MIC alone (M),EC1007 Escherichia coli KPC-3,Y (MIC of 1 μg/mL to 10 μg/mL)
same,Meropenem MIC alone (M),"EC1064 Escherichia coli NDM-1, CMY-6, CTX-M-15",Z (MIC of greater than 10 μg/mL)
same,Meropenem MIC alone (M),EC1065 Escherichai coli IMP-1 CMY-2,Y (MIC of 1 μg/mL to 10 μg/mL)
same,Meropenem MIC alone (M),EC1068 Escherichia coli VIM-1,Z (MIC of greater than 10 μg/mL)
same,Meropenem MIC alone (M),EC1073 Escherichia coli OXA-48,Z (MIC of greater than 10 μg/mL)
same,Meropenem MIC alone (M),"EC1074 Escherichia coli KPC-2, SHV-12",Z (MIC of greater than 10 μg/mL)
same,Meropenem MIC alone (M),EC1076 Escherichia coli NDM-1 CMY-2,Z (MIC of greater than 10 μg/mL)
same,Meropenem MIC alone (M),ECL1004 Enterobacter cloacae NMC-A,Z (MIC of greater than 10 μg/mL)
same,Meropenem MIC alone (M),"ECL1026 Enterobacter cloacae KPC-2, TEM-1",Y (MIC of 1 μg/mL to 10 μg/mL)
same,Meropenem MIC alone (M),"ECL1036 Enterobacter cloacae KPC-3, TEM-1",Y (MIC of 1 μg/mL to 10 μg/mL)
same,Meropenem MIC alone (M),"ECL1058 Enterobacter cloacae KPC-3, SHV-11, TEM-1",Y (MIC of 1 μg/mL to 10 μg/mL)
same,Meropenem MIC alone (M),"ECL1059 Enterobacter cloacae KPC-3, SHV-12, TEM-1",Y (MIC of 1 μg/mL to 10 μg/mL)
same,Meropenem MIC alone (M),"ECL1061 Enterobacter cloacae KPC-3, Hyper AmpC expression",Y (MIC of 1 μg/mL to 10 μg/mL)
same,Meropenem MIC alone (M),ECL1079 Enterobacter cloacae KPC TEM,Z (MIC of greater than 10 μg/mL)
same,Meropenem MIC alone (M),ECL1082 Enterobacter cloacae VIM-1,Y (MIC of 1 μg/mL to 10 μg/mL)
same,Meropenem MIC alone (M),KP1001 Klebsiella pneumoniae KPC TEM SHV,Z (MIC of greater than 10 μg/mL)
same,Meropenem MIC alone (M),KP1002 Klebsiella pneumoniae KPC TEM SHV,Z (MIC of greater than 10 μg/mL)
same,Meropenem MIC alone (M),KP1003 Klebsiella pneumoniae KPC TEM SHV,Z (MIC of greater than 10 μg/mL)
same,Meropenem MIC alone (M),"KP1004 Klebsiella pneumoniae KPC-2, TEM-1, SHV-11",Z (MIC of greater than 10 μg/mL)
same,Meropenem MIC alone (M),KP1008 Klebsiella pneumoniae KPC-2,Y (MIC of 1 μg/mL to 10 μg/mL)
same,Meropenem MIC alone (M),"KP1014 Klebsiella pneumoniae Vim-1, TEM, SHV",Z (MIC of greater than 10 μg/mL)
same,Meropenem MIC alone (M),"KP1015 Klebsiella pneumoniae VIM-1, SHV",Z (MIC of greater than 10 μg/mL)
same,Meropenem MIC alone (M),"KP1082 Klebsiella pneumoniae KPC-2, SHV-1",Z (MIC of greater than 10 μg/mL)
same,Meropenem MIC alone (M),"KP1083 Klebsiella pneumoniae KPC-3, SHV-1, TEM-1",Z (MIC of greater than 10 μg/mL)
same,Meropenem MIC alone (M),"KP1084 Klebsiella pneumoniae KPC-3, SHV-11, TEM-1",Z (MIC of greater than 10 μg/mL)
same,Meropenem MIC alone (M),"KP1086 Klebsiella pneumoniae TEM, SHV, CTX-M-15, OXA-48",Z (MIC of greater than 10 μg/mL)
same,Meropenem MIC alone (M),"KP1087 Klebsiella pneumoniae KPC-2, CTX-M-15, SHV-11, TEM-1",Z (MIC of greater than 10 μg/mL)
same,Meropenem MIC alone (M),"KP1088 Klebsiella pneumoniae KPC-3, SHV-11, TEM-1",Z (MIC of greater than 10 μg/mL)
same,Meropenem MIC alone (M),"KP1089 Klebsiella pneumoniae TEM, SHV, CTX-M-15, OXA-181",Y (MIC of 1 μg/mL to 10 μg/mL)
same,Meropenem MIC alone (M),"KP1092 Klebsiella pneumoniae SHV-11, SHV-12, TEM-1, KPC",Z (MIC of greater than 10 μg/mL)
same,Meropenem MIC alone (M),KP1093 Klebsiella pneumoniae KPC-3 TEM SHV-11,Z (MIC of greater than 10 μg/mL)
same,Meropenem MIC alone (M),KP1094 Klebsiella pneumoniae KPC-2 TEM-1 LEN-17,Z (MIC of greater than 10 μg/mL)
same,Meropenem MIC alone (M),KP1095 Klebsiella pneumoniae KPC-2 TEM-1 SHV-1,Y (MIC of 1 μg/mL to 10 μg/mL)
same,Meropenem MIC alone (M),KP1096 Klebsiella pneumoniae KPC-2 TEM-181 SHV-11,Z (MIC of greater than 10 μg/mL)
same,Meropenem MIC alone (M),KP1097 Klebsiella pneumoniae IMP-1 SHV,Z (MIC of greater than 10 μg/mL)
same,Meropenem MIC alone (M),KP1098 Klebsiella pneumoniae IMP-26 TEM SHV,Z (MIC of greater than 10 μg/mL)
same,Meropenem MIC alone (M),KP1099 Klebsiella pneumoniae KPC-2 SHV,Z (MIC of greater than 10 μg/mL)
same,Meropenem MIC alone (M),KP1100 Klebsiella pneumoniae KPC-3 TEM SHV,Z (MIC of greater than 10 μg/mL)
same,Meropenem MIC alone (M),KP1101 Klebsiella pneumoniae KPC-2 TEM SHV,Z (MIC of greater than 10 μg/mL)
same,Meropenem MIC alone (M),KP1102 Klebsiella pneumoniae KPC-3 TEM SHV,Z (MIC of greater than 10 μg/mL)
same,Meropenem MIC alone (M),"KP1104 Klebsiella pneumoniae KPC, TEM",Z (MIC of greater than 10 μg/mL)
same,Meropenem MIC alone (M),"KP1105 Klebsiella pneumoniae KPC, SHV, TEM",Z (MIC of greater than 10 μg/mL)
same,Meropenem MIC alone (M),KP1237 Klebsiella pneumoniae OXA-48 TEM SHV CTX-M-15,Z (MIC of greater than 10 μg/mL)
same,Meropenem MIC alone (M),KP1239 Klebsiella pneumoniae OXA-48 SHV,Z (MIC of greater than 10 μg/mL)
same,Meropenem MIC alone (M),KP1240 Klebsiella pneumoniae OXA-181 SHV CTX-M-15,Z (MIC of greater than 10 μg/mL)
same,Meropenem MIC alone (M),KP1241 Klebsiella pneumoniae OXA-181 TEM SHV CTX-M-15,Z (MIC of greater than 10 μg/mL)
same,Meropenem MIC alone (M),"KP1242 Klebsiella pneumoniae KPC-2, SHV-12 TEM",Z (MIC of greater than 10 μg/mL)
same,Meropenem MIC alone (M),KP1243 Klebsiella pneumoniae KPC-2 SHV VIM-1,Z (MIC of greater than 10 μg/mL)
same,Meropenem MIC alone (M),KP1244 Klebsiella pneumoniae KPC SHV TEM + 1.9 kb,Z (MIC of greater than 10 μg/mL)
same,Meropenem MIC alone (M),KP1245 Klebsiella pneumoniae KPC SHV TEM + 1.9 kb,Z (MIC of greater than 10 μg/mL)
same,Meropenem MIC alone (M),KP1246 Klebsiella pneumoniae KPC SHV TEM + 1.9 kb,Z (MIC of greater than 10 μg/mL)
same,Meropenem MIC alone (M),KP1247 Klebsiella pneumoniae IMP TEM SHV,Z (MIC of greater than 10 μg/mL)
same,Meropenem MIC alone (M),KP1248 Klebsiella pneumoniae OXA-232 SHV CTX-M-15,Z (MIC of greater than 10 μg/mL)
same,Meropenem MIC alone (M),KP1249 Klebsiella pneumoniae OXA-232 SHV,Z (MIC of greater than 10 μg/mL)
same,Meropenem MIC alone (M),KP1250 Klebsiella pneumoniae NDM-1 TEM SHV SMY-2 CTX-M-15,Z (MIC of greater than 10 μg/mL)
same,Meropenem MIC alone (M),KP1252 Klebsiella pneumoniae KPC TEM SHV,Z (MIC of greater than 10 μg/mL)
same,Meropenem MIC alone (M),KPM1123 Klebsiella pneumoniae KPC-2 TEM SHV,Z (MIC of greater than 10 μg/mL)
same,Meropenem MIC alone (M),KPM1202 Klebsiella pneumoniae KPC SHV TEM,Z (MIC of greater than 10 μg/mL)
same,Meropenem MIC alone (M),KPM1203 Klebsiella pneumoniae KPC SHV TEM,Y (MIC of 1 μg/mL to 10 μg/mL)
same,Meropenem MIC alone (M),KPM1344 Klebsiella pneumoniae VIM-1,Y (MIC of 1 μg/mL to 10 μg/mL)
same,Meropenem MIC alone (M),KPM1345 Klebsiella pneumoniae VIM-1 SHV,Z (MIC of greater than 10 μg/mL)
same,Meropenem MIC alone (M),KPM1346 Klebsiella pneumoniae NDM-1 TEM SHV CTX-M-15 CMY,Z (MIC of greater than 10 μg/mL)
same,Meropenem MIC alone (M),KPM1347 Klebsiella pneumoniae NDM-1 SHV CTX-M-15,Z (MIC of greater than 10 μg/mL)
same,Meropenem MIC alone (M),"KX1017 Klebsiella oxytoca KPC-2, OXA-2, SHV-30",Y (MIC of 1 μg/mL to 10 μg/mL)
same,Meropenem MIC alone (M),"KX1018 Klebsiella oxytoca KPC-2, SHV-40, OXY-1",Y (MIC of 1 μg/mL to 10 μg/mL)
same,Meropenem MIC alone (M),"KX1019 Klebsiella oxytoca KPC-2, OXA-2",Y (MIC of 1 μg/mL to 10 μg/mL)
